# US12729405B2, “Method and kit for determining benefit of chemotherapy” (St. Jude Children's Research Hospital, Inc., priority 2019, dated 2026)
# At least one compound was matched to its structure with a doubt left.
# How the values were obtained:
# [1] = tested on: primary human ALL cells; conditions: pharmacotyping T-ALL cohort (N=34)
# Experimental: Ex vivo Leukemia Drug Sensitivity Assay. Drug response of primary human ALL cells was evaluated using a co-culture system and flow cytometry assays. hTERT-immortalized mesenchymal stem cells ([…] Wang, et al. (2019) Nat. Commun. 10:3718) were first seeded in a 96-well plate format at a density of 10,000 cells per well in 100 μL of complete medium (RPMI-1640, L-glutamine, 10% fetal bovine serum and 1 μM Hydrocortisone). After 24 hours, leukemia cells were added at 160,000 cells per well to the stromal cell layer in 80 μL AIM-V medium along with 20 μL of drug solution prepared in the same medium. […] After 96 hours incubation at 37° C. with 5% CO2, cells were harvested and stained with CD19 or CD7 to identify leukemia blasts (for B-ALL and T-ALL, respectively). The total number of live leukemia cells were evaluated by using flow cytometry after Annexin V and DAPI staining. Drug-induced death was estimated by comparing to leukemia cells treated with the vehicle alone. The drug concentration that killed 50% of the leukemia cells (LC50 value) was determined using a dose-response model and as a measurement of drug sensitivity. Quality control was performed to remove cases with low viability (less than 1000 viable blast cells in each well in the absence of drugs on day 4).
# [2] = tested on: T-ALL cell lines; assay: Cell line drug sensitivity profiling using the MTT assay; format: cell-based; conditions: three of eight human T-ALL cell lines: ALL-SIL (NUP214-ABL), HSB-2 and CTV-1 (TCR-LCK)
# [3] = tested on: phosphorylation of LCK (Y394), CD247 (Y142), and ZAP70 (Y319); assay: Phospho-flow of LCK signaling molecules; format: cell-based, human
# [4] = tested on: mouse DN thymocytes; assay: Dasatinib sensitivity of mouse DN thymocytes on OP9-DL1 cells; format: cell-based; conditions: 2 days on OP9-DL1
Compound,venetoclax sensitivity ex vivo of dasatinib-sensitive leukemia [1],sensitivity of T-ALL cell lines in vitro [2],"tyrosine phosphorylation of LCK, CD247, ZAP70 upon treatment ([3]; dasatinib-resistant T-ALL, increasing concentrations)","tyrosine phosphorylation of LCK, CD247, ZAP70 upon treatment ([3]; dasatinib-sensitive T-ALL cases (PDX-expanded), 1, 10, 100 nM, one hour, dose-dependent)",effect on DN1 and DN2 cells ([4]; mouse DN1 and DN2 thymocytes),growth of DN3 cells ([4]; mouse DN3 thymocytes)
CC1(C)CCC(CN2CCN(c3ccc(C(=O)NS(=O)(=O)c4ccc(NCC5CCOCC5)c([N+](=O)[O-])c4)c(Oc4cnc5[nH]ccc5c4)c3)CC2)=C(c2ccc(Cl)cc2)C1 [venetoclax],resistant,–,–,–,–,–
Cc1nc(Nc2ncc(C(=O)Nc3c(C)cccc3Cl)s2)cc(N2CCN(CCO)CC2)n1 [dasatinib],–,extreme response,did not change,decreased dramatically,little effects,robust growth inhibition
